Source: paper PMC6961116, “Scaffold-hopping identifies furano[2,3-d]pyrimidine amides as potent Notum inhibitors” (Bioorganic & Medicinal Chemistry Letters, 2020)
Not every entry of the source has a single result; some have several. Only these are listed. The source may hold further records. Values given together differ, and nothing given here explains why; dose, time, organism, isomer or construct need not be as stated for each record.

Test system: MDCK-MDR1 monolayer

- Papp: 18 ×10⁻⁶ cm/s and 46 ×10⁻⁶ cm/s
SMILES: Cc1sc2ncnc(SCC(=O)N3CCN(CC(F)(F)F)C(=O)C3)c2c1Cl
